# The other results are listed elsewhere or left out.
# B1: CD23 (Homo sapiens) (protein)
# chain: MELQVSSGFVCNTCPEKWINFQRKCYYFGKGTKQWVHARYACDDMEGQLVSIHSPEEQDFLTKRASHTGSWIGLRNLDLKGEFIWVDGSHVDYSNWAPGEPTSRSQSEDCVMMRGSGRWNDAFCDRKLGAWVCDRLATCTPPASEGSAESMGPDSRPDPDGRLPTPSAPLHS
# Legend:
# Experiment in all cases: glycan array binding signal (z-score within array); higher = stronger binding
# Conditions in all cases: glycan notation: IUPAC condensed, linker removed; mutation: H213R,G256S
# [1] = target: Gal(b1-4)GlcNAc(b1-6)GalNAc
# Summary of the method: (§1)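 Columns mapping to the same glycan were averaged after glycan names were converted to IUPAC-condensed notation. The data come from 3228 arrays in the Consortium for Functional Glycomics database, limited to those with an available protein sequence. Binding is reported as a within-array Z-score averaged across arrays of one protein sequence and across linkers.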
# [2] = target: Gal(b1-4)GlcNAc(b1-6)[Gal(b1-3)]GalNAc
# Summary of the method: as §1
# [3] = target: Gal3S(b1-3)GalNAc
# Summary of the method: as §1
# [4] = target: Gal3S(b1-3)GlcNAc
# Summary of the method: as §1
# [5] = target: Gal3S(b1-3)[Fuc(a1-4)]GlcNAc
# Summary of the method: as §1
# [6] = target: Gal3S(b1-4)Glc
# Summary of the method: as §1
# [7] = target: Gal3S(b1-4)Glc6S
# Summary of the method: as §1
# [8] = target: Gal3S(b1-4)GlcNAc
# Summary of the method: as §1
# [9] = target: Gal3S(b1-4)GlcNAc6S
# Summary of the method: as §1
# [10] = target: Gal3S(b1-4)[Fuc(a1-3)]Glc
# Summary of the method: as §1
# [11] = target: Gal3S6S(b1-4)GlcNAc
# Summary of the method: as §1
# [12] = target: Gal3S6S(b1-4)GlcNAc6S
# Summary of the method: as §1
# [13] = target: Gal4S(b1-4)GlcNAc
# Summary of the method: as §1
# [14] = target: Gal4S6S(b1-4)GlcNAc
# Summary of the method: as §1
# [15] = target: Gal6S(b1-4)Glc
# Summary of the method: as §1
# [16] = target: Gal6S(b1-4)Glc6S
# Summary of the method: as §1
# [17] = target: Gal6S(b1-4)GlcNAc
# Summary of the method: as §1
# [18] = target: GalNAc(a1-3)Gal
# Summary of the method: as §1
# [19] = target: GalNAc(a1-3)GalNAc
# Summary of the method: as §1
# [20] = target: GalNAc(b1-3)Gal(a1-4)Gal(b1-4)GlcNAc
# Summary of the method: as §1
# [21] = target: GalNAc(b1-3)GalNAc
# Summary of the method: as §1
# [22] = target: GalNAc(b1-4)GlcNAc
# Summary of the method: as §1
# [23] = target: Glc(a1-4)Glc
# Summary of the method: as §1
# [24] = target: Glc(a1-6)Glc(a1-6)Glc
# Summary of the method: as §1
# [25] = target: Glc(b1-4)Glc
# Summary of the method: as §1
# [26] = target: Glc(b1-6)Glc
# Summary of the method: as §1
# [27] = target: GlcA(b1-3)Gal
# Summary of the method: as §1
# [28] = target: GlcA(b1-6)Gal
# Summary of the method: as §1
# [29] = target: GlcNAc(a1-3)Gal(b1-4)GlcNAc
# Summary of the method: as §1
# [30] = target: GlcNAc(a1-6)Gal(b1-4)GlcNAc
# Summary of the method: as §1
# [31] = target: GlcNAc(b1-2)Gal(b1-3)GalNAc
# Summary of the method: as §1
# [32] = target: GlcNAc(b1-2)Man(a1-3)[GlcNAc(b1-2)Man(a1-6)]Man(b1-4)GlcNAc(b1-4)GlcNAc
# Summary of the method: as §1
# [33] = target: GlcNAc(b1-3)Gal
# Summary of the method: as §1
# [34] = target: GlcNAc(b1-3)Gal(b1-3)GalNAc
# Summary of the method: as §1
# [35] = target: GlcNAc(b1-3)Gal(b1-4)Glc
# Summary of the method: as §1
# [36] = target: GlcNAc(b1-3)Gal(b1-4)GlcNAc
# Summary of the method: as §1
# [37] = target: GlcNAc(b1-3)Gal(b1-4)GlcNAc(b1-3)Gal(b1-4)GlcNAc
# Summary of the method: as §1
# [38] = target: GlcNAc(b1-3)GalNAc
# Summary of the method: as §1
# [39] = target: GlcNAc(b1-3)[GlcNAc(b1-4)][GlcNAc(b1-6)]GlcNAc
# Summary of the method: as §1
# [40] = target: GlcNAc(b1-3)[GlcNAc(b1-6)]Gal(b1-4)GlcNAc
# Summary of the method: as §1
# [41] = target: GlcNAc(b1-3)[GlcNAc(b1-6)]GalNAc
# Summary of the method: as §1
# [42] = target: GlcNAc(b1-4)Gal(b1-4)GlcNAc
# Summary of the method: as §1
# [43] = target: GlcNAc(b1-4)GlcNAc(b1-4)GlcNAc
# Summary of the method: as §1
# [44] = target: GlcNAc(b1-4)GlcNAc(b1-4)GlcNAc(b1-4)GlcNAc(b1-4)GlcNAc
# Summary of the method: as §1
# [45] = target: GlcNAc(b1-4)GlcNAc(b1-4)GlcNAc(b1-4)GlcNAc(b1-4)GlcNAc(b1-4)GlcNAc
# Summary of the method: as §1
binder,measurement,setting,value
B1,glycan array binding signal (z-score),[1],0.044
same,glycan array binding signal (z-score),[2],-0.211
same,glycan array binding signal (z-score),[3],-0.308
same,glycan array binding signal (z-score),[4],-0.298
same,glycan array binding signal (z-score),[5],0.525
same,glycan array binding signal (z-score),[6],0.2
same,glycan array binding signal (z-score),[7],0.296
same,glycan array binding signal (z-score),[8],0.255
same,glycan array binding signal (z-score),[9],0.296
same,glycan array binding signal (z-score),[10],-0.106
same,glycan array binding signal (z-score),[11],-0.069
same,glycan array binding signal (z-score),[12],1.06
same,glycan array binding signal (z-score),[13],0.736
same,glycan array binding signal (z-score),[14],-0.54
same,glycan array binding signal (z-score),[15],0.104
same,glycan array binding signal (z-score),[16],0.798
same,glycan array binding signal (z-score),[17],-0.574
same,glycan array binding signal (z-score),[18],0.13
same,glycan array binding signal (z-score),[19],0.299
same,glycan array binding signal (z-score),[20],-0.27
same,glycan array binding signal (z-score),[21],-0.197
same,glycan array binding signal (z-score),[22],-0.341
same,glycan array binding signal (z-score),[23],-0.304
same,glycan array binding signal (z-score),[24],0.031
same,glycan array binding signal (z-score),[25],-0.373
same,glycan array binding signal (z-score),[26],-0.561
same,glycan array binding signal (z-score),[27],-0.28
same,glycan array binding signal (z-score),[28],-0.24
same,glycan array binding signal (z-score),[29],0.02
same,glycan array binding signal (z-score),[30],-0.365
same,glycan array binding signal (z-score),[31],-0.036
same,glycan array binding signal (z-score),[32],-0.07
same,glycan array binding signal (z-score),[33],-0.107
same,glycan array binding signal (z-score),[34],0.679
same,glycan array binding signal (z-score),[35],-0.551
same,glycan array binding signal (z-score),[36],-0.235
same,glycan array binding signal (z-score),[37],-0.36
same,glycan array binding signal (z-score),[38],0.052
same,glycan array binding signal (z-score),[39],0.277
same,glycan array binding signal (z-score),[40],-0.334
same,glycan array binding signal (z-score),[41],-0.403
same,glycan array binding signal (z-score),[42],-0.015
same,glycan array binding signal (z-score),[43],-0.43
same,glycan array binding signal (z-score),[44],0.095
same,glycan array binding signal (z-score),[45],-0.318

# Given with bars between the fields: part of the list above.
binder | measurement | setting | value
B1 | glycan array binding signal (z-score) | [3] | -0.308
same | glycan array binding signal (z-score) | [7] | 0.296
same | glycan array binding signal (z-score) | [9] | 0.296
same | glycan array binding signal (z-score) | [16] | 0.798
same | glycan array binding signal (z-score) | [24] | 0.031
same | glycan array binding signal (z-score) | [27] | -0.28
same | glycan array binding signal (z-score) | [34] | 0.679
same | glycan array binding signal (z-score) | [39] | 0.277
same | glycan array binding signal (z-score) | [41] | -0.403

# Source: the supplement of paper PMC8728848
